Measured values as given in the supplement of paper PMC12819154, “High-throughput peptide-centric local stability assay extends protein–ligand identification to membrane proteins, tissues and bacteria” (Nature Structural & Molecular Biology, 2025).
Some of the results follow. Most entries show no effect beyond the scatter of the controls.

Sequences of proteins named here, by UniProt entry; tags and fusion partners are left off. A change or cut given only in a name is not applied to a line headed by its entry.
UniProt Q8R4U6: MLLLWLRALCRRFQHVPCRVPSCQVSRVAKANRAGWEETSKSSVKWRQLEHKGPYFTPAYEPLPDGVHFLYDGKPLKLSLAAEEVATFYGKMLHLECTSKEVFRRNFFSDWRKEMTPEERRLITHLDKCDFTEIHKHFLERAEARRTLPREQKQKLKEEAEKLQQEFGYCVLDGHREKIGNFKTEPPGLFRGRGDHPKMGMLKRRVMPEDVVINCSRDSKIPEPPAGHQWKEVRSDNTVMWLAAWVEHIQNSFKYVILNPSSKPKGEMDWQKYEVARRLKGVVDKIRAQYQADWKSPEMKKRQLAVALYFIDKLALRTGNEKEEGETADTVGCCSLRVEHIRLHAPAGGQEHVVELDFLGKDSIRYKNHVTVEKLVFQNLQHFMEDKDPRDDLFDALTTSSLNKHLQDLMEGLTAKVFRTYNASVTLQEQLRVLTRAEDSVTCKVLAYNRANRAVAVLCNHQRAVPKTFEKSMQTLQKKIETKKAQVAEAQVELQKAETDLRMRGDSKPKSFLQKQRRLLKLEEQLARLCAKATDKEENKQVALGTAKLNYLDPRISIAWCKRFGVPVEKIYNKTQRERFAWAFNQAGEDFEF
UniProt Q8VDS8: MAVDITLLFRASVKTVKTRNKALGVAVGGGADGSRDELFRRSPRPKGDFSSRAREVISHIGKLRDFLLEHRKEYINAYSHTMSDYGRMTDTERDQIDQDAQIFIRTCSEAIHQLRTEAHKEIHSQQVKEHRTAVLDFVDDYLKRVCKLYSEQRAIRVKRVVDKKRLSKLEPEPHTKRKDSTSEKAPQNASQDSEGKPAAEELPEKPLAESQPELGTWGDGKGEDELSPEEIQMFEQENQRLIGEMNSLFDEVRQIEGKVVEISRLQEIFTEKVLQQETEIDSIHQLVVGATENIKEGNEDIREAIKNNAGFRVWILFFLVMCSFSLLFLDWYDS
UniProt Q8R3P2: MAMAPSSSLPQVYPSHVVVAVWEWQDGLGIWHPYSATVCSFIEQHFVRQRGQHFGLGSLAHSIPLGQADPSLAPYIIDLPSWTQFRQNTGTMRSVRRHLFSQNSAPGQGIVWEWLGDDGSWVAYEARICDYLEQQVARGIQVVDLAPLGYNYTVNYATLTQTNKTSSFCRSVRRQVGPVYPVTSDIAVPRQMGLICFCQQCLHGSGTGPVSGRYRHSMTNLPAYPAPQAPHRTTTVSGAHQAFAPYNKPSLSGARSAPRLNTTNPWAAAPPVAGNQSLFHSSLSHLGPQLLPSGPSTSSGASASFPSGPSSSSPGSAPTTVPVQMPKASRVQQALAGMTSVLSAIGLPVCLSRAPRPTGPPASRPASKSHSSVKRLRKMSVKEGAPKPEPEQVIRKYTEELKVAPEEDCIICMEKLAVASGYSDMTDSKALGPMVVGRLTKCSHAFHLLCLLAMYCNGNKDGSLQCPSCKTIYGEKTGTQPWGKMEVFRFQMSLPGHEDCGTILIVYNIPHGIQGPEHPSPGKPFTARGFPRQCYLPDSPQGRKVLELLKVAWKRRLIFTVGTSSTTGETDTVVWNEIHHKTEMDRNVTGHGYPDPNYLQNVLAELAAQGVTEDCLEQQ
UniProt Q8VEB3: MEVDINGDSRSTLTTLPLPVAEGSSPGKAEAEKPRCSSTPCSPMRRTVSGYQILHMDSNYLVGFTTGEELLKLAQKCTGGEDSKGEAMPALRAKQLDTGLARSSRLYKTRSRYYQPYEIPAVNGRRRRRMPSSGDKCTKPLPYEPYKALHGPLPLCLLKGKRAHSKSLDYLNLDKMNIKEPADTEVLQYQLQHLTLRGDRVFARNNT
UniProt Q8VCT3: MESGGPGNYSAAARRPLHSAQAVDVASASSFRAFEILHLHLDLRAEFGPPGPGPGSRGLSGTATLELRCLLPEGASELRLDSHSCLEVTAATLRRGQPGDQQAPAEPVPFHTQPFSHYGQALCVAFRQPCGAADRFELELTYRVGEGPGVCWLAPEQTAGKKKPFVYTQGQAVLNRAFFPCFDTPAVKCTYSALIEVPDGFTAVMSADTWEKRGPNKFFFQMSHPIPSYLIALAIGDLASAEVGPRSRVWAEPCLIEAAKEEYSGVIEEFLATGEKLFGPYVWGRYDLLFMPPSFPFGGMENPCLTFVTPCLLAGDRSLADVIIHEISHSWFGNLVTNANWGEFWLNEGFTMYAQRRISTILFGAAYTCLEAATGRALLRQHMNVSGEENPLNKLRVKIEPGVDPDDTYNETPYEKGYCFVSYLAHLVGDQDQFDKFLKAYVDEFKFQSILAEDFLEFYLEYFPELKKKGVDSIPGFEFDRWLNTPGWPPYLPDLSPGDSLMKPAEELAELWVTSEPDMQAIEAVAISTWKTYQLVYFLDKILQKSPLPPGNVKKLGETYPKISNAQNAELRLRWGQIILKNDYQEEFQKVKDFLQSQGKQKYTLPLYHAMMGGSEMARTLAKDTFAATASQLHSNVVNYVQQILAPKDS
UniProt Q8VDS7: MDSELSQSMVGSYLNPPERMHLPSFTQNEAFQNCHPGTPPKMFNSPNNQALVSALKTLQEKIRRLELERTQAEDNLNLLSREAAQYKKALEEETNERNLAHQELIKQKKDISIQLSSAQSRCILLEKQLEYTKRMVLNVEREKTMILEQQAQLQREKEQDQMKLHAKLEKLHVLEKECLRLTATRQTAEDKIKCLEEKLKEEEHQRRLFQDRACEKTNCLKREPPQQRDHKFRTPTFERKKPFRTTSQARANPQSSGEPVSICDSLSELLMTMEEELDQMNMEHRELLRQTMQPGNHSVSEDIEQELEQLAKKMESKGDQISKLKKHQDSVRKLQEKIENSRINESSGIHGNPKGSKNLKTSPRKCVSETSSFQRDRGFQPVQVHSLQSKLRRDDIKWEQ
UniProt Q8VDP4, whole entry: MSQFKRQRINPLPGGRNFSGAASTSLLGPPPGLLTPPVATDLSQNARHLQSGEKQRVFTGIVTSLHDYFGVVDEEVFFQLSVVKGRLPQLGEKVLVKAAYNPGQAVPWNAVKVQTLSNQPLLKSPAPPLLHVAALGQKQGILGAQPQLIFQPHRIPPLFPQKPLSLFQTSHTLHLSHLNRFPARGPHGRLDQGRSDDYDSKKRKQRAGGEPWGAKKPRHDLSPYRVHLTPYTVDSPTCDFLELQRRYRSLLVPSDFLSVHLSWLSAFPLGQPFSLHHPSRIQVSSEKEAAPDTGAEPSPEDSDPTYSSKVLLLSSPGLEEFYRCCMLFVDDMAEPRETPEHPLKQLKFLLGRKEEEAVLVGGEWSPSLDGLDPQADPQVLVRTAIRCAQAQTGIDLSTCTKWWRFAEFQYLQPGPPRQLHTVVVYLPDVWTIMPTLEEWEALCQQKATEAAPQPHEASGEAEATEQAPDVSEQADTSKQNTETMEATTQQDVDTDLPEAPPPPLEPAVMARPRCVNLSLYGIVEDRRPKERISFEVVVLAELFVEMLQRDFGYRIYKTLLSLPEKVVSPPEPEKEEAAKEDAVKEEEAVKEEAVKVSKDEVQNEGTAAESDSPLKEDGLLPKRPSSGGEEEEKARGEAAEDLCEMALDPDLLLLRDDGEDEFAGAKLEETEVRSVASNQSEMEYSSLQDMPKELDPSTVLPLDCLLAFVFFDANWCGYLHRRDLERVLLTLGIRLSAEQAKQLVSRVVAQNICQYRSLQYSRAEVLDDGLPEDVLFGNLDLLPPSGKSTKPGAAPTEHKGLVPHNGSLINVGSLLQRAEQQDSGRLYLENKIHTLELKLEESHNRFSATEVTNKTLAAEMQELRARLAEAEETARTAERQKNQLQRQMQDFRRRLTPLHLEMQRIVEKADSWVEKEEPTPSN
UniProt Q8VC70: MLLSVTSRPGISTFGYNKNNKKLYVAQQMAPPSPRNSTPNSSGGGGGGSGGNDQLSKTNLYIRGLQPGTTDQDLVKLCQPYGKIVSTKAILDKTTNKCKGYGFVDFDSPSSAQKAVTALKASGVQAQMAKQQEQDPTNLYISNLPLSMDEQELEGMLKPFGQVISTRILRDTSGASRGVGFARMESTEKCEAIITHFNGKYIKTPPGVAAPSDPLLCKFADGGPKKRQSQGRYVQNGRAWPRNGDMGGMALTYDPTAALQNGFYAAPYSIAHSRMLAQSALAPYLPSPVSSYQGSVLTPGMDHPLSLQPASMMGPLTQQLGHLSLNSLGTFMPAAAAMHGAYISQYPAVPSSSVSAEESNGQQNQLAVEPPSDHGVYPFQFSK
UniProt Q8VED2: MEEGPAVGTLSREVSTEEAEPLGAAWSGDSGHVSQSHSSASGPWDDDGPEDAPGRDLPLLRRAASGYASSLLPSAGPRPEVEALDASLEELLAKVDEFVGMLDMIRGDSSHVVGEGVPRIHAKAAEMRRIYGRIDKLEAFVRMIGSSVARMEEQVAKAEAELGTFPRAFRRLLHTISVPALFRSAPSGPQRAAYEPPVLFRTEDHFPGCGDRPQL
UniProt Q8R570: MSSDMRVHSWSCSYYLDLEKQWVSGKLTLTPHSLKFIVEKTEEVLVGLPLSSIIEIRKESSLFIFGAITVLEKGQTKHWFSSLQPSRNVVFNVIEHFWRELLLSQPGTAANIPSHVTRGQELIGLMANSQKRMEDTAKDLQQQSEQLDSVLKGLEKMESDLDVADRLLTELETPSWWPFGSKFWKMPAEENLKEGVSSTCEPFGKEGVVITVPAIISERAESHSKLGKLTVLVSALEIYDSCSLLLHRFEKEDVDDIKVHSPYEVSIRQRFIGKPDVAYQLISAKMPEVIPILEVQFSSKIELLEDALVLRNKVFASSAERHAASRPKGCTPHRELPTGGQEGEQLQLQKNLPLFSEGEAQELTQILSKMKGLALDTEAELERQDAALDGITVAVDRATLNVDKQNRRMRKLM
UniProt Q8R2Y0: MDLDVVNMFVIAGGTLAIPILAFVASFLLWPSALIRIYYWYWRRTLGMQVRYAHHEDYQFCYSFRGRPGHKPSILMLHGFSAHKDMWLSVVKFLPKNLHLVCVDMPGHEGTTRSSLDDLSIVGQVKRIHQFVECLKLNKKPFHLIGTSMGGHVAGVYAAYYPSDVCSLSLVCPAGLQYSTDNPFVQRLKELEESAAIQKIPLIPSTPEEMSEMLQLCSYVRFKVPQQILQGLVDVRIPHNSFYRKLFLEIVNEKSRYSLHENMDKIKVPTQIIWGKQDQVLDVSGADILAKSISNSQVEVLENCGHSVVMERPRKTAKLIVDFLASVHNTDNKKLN
UniProt Q8VCN9: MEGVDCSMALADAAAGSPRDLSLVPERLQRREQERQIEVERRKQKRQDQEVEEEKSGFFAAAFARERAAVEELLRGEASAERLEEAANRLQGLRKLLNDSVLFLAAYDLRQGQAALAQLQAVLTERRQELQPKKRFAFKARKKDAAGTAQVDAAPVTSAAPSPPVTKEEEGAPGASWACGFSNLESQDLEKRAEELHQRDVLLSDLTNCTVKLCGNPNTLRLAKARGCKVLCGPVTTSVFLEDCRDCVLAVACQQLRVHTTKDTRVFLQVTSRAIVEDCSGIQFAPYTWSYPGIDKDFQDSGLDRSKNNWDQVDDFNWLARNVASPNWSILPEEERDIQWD
UniProt Q8VEH5: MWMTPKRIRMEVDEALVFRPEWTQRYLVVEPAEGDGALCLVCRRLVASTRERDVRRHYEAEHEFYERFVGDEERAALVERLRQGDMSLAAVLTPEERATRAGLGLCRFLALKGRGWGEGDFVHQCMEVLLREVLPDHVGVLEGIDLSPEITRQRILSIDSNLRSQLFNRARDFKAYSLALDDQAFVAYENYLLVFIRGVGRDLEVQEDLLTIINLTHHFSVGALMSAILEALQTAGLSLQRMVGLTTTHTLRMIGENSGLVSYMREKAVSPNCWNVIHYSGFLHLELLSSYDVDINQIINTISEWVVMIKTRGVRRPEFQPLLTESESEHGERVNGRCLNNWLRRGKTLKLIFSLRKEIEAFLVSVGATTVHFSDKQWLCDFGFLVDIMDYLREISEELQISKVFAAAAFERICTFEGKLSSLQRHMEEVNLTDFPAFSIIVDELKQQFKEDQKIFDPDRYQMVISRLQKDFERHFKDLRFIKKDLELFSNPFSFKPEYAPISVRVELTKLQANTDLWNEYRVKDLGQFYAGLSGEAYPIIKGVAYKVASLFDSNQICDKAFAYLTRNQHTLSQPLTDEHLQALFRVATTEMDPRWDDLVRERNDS
UniProt Q8VDT9: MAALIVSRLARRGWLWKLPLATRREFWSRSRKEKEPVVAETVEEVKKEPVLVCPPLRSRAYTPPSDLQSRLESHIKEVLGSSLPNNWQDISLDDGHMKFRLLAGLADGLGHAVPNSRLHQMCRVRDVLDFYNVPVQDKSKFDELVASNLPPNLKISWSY
UniProt Q8VBW8: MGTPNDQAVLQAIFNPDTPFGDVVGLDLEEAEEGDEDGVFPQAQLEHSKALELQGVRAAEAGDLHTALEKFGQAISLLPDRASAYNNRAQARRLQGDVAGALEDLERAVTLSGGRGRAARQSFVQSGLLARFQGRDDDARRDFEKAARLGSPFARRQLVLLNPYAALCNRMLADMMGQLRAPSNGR

Compound: CN[C@@H]1C[C@H]2O[C@@](C)([C@@H]1OC)n1c3ccccc3c3c4c(c5c6ccccc6n2c5c31)C(=O)NC4 [staurosporine]
Assay: log2 fold change of tryptic peptide abundance, ligand vs vehicle (limited proteolysis) (log2 ratio); higher = more trypsin-susceptible (destabilized)
Settings: ligand concentration: 20 uM; sample: mouse liver crude lysate; replicate design: treated separately

Target	log2 fold change
UniProt Q8R4U6 (peptide sequence: YVILNPSSKPK, peptide start residue: 255)	0.756
UniProt Q8VDP2 (peptide sequence: TNIYTQK, peptide start residue: 129)	-0.197
UniProt Q8VDS8 (peptide sequence: LEPEPHTKR, peptide start residue: 169)	-0.4
UniProt Q8R3P2 (peptide sequence: HSMTNLPAYPAPQAPHR, peptide start residue: 216)	0.232
UniProt Q8VEB3 (peptide sequence: ALHGPLPLCLLK, peptide start residue: 148)	0.381
UniProt Q8R4Y4 (peptide sequence: SGLSFSRGCSYTCAK, peptide start residue: 1300)	-0.219
UniProt Q8VCT3 (peptide sequence: QHMNVSGEENPLNK, peptide start residue: 381)	-0.466
UniProt Q8VDS7 (peptide sequence: ALEEETNER, peptide start residue: 89)	0.151
UniProt Q8VDC1 (peptide sequence: FQLSAEIMDHQNR, peptide start residue: 964)	0.383
UniProt Q8VDP4 (peptide sequence: RLTPLHLEMQR, peptide start residue: 894)	-0.122
UniProt Q8VC70 (peptide sequence: YIKTPPGVAAPSDPLLCK, peptide start residue: 201)	0.198
UniProt Q8R3N6 (peptide sequence: TGGEHVYFAK, peptide start residue: 291)	0.319
UniProt Q8VE10 (peptide sequence: KVMLTVFK, peptide start residue: 170)	0.251
UniProt Q8VED2 (peptide sequence: LLHTISVPALFR, peptide start residue: 172)	0.141
UniProt Q8VCT4 (peptide sequence: QKTEDELLETSLK, peptide start residue: 287)	-0.416
UniProt Q8R570 (peptide sequence: ELLLSQPGTAANIPSHVTR, peptide start residue: 100)	0.198
UniProt Q8R2Y0 (peptide sequence: SISNSQVEVLENCGHSVVMERPR, peptide start residue: 292)	-0.635
UniProt Q8R574 (peptide sequence: EKPPITVVGDVGGR, peptide start residue: 237)	-0.229
UniProt Q8VDI1 (peptide sequence: AKPVYLVPQR, peptide start residue: 97)	0.57
UniProt Q8VDV8 (peptide sequence: ISGYMDRAENIKK, peptide start residue: 65)	0.313
UniProt Q8VCN9 (peptide sequence: AEELHQR, peptide start residue: 193)	-0.567
UniProt Q8VEH5 (peptide sequence: MVGLTTTHTLR, peptide start residue: 242)	0.373
UniProt Q8VDT9 (peptide sequence: VRDVLDFYNVPVQDK, peptide start residue: 124)	-0.304
UniProt Q8R3C6 (peptide sequence: SEEEAQAALNHFHR, peptide start residue: 51)	-0.288
UniProt Q8VDI9 (peptide sequence: LKGGGGGGGGGGDAGPAAEK, peptide start residue: 10)	-0.143
UniProt Q8R3L2 (peptide sequence: KSCTGESSENGLEDIDR, peptide start residue: 136)	-0.311
UniProt Q8VE99 (peptide sequence: VEEGWLSLAK, peptide start residue: 35)	-0.269
UniProt Q8VD33 (peptide sequence: LSHYTDAIKDCEK, peptide start residue: 132)	-0.553
UniProt Q8VD31 (peptide sequence: QRQPTDIILDCFLVTEDRHR, peptide start residue: 33)	-0.247
UniProt Q8VBW8 (peptide sequence: QSFVQSGLLAR, peptide start residue: 121)	0.0731

Rewritten field by field: part of the list above.
UniProt Q8VDC1 (peptide sequence: FQLSAEIMDHQNR, peptide start residue: 964)
  log2 fold change: 0.383
UniProt Q8VDV8 (peptide sequence: ISGYMDRAENIKK, peptide start residue: 65)
  log2 fold change: 0.313
